From publication PMC12241546, “PRELP functions via multiple interactions with intrinsically weak affinity relying on ECM anchoring and remodeling” (Scientific Reports, 2025)

Tests used:
[1] = molecular target: bovine collagen (KOKEN AteloCell I-AC) (bovine); experiment: ELISA; wells coated with fibronectin (5 µg/mL), perlecan (1 µg/mL) or collagen (5 µg/mL) in PBS; a range of concentrations of full-length PRELP in 10 mM HEPES pH 7.5, 150 mM NaCl, 0.05% Tween-20, room temperature, 1 h; detected with anti-DDDDK-tag mAb HRP; both purified
[2] = molecular target: human fibronectin (human); experiment: as above

binding [1]: binds | binding [2]: binds
B1: Recombinant human full-length PRELP (proline/arginine-rich end leucine-rich repeat protein) (natural protein, UniProt P51888 21-382, looked up)
chain: QPTRRPRPGTGPGRRPRPRPRPTPSFPQPDEPAEPTDLPPPLPPGPPSIFPDCPRECYCPPDFPSALYCDSRNLRKVPVIPPRIHYLYLQNNFITELPVESFQNATGLRWINLDNNRIRKIDQRVLEKLPGLVFLYMEKNQLEEVPSALPRNLEQLRLSQNHISRIPPGVFSKLENLLLLDLQHNRLSDGVFKPDTFHGLKNLMQLNLAHNILRKMPPRVPTAIHQLYLDSNKIETIPNGYFKSFPNLAFIRLNYNKLTDRGLPKNSFNISNLLVLHLSHNRISSVPAINNRLEHLYLNNNSIEKINGTQICPNDLVAFHDFSSDLENVPHLRYLRLDGNYLKPPIPLDLMMCFRLLQSVVI
notes: human PRELP, amino acid residues 21-382 (Uniprot numbering); source: Mimic Sf9 cells, purified from the supernatant (DDDDK-tagged Protein Purification Gel, Benzonase, SEC); not shown: FLAG, C-terminal, kept

Results are given in words; binding and its absence hold for the method and conditions named. A result given as binding can be weak or reduced; the word gives no strength.
